# Assay results published in the supplement of paper PMC12819154, “High-throughput peptide-centric local stability assay extends protein–ligand identification to membrane proteins, tissues and bacteria” (Nature Structural & Molecular Biology, 2025).
# Chains of the proteins cited; added tags and fusions are not shown. Lines headed by an entry give the natural chain unless they say otherwise; changes in a name come on top.
# UniProt Q5SQI0: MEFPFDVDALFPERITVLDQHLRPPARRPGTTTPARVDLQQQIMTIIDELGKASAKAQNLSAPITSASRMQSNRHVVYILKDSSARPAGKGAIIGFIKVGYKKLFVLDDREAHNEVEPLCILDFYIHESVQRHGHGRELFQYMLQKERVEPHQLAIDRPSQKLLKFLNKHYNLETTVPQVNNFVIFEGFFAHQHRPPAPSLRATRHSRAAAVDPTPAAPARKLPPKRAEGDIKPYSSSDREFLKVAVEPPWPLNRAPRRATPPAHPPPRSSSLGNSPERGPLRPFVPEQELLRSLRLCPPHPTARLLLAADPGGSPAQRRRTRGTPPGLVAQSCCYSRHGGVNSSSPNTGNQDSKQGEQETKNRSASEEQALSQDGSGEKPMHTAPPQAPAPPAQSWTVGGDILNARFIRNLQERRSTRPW
# UniProt Q5VWJ9: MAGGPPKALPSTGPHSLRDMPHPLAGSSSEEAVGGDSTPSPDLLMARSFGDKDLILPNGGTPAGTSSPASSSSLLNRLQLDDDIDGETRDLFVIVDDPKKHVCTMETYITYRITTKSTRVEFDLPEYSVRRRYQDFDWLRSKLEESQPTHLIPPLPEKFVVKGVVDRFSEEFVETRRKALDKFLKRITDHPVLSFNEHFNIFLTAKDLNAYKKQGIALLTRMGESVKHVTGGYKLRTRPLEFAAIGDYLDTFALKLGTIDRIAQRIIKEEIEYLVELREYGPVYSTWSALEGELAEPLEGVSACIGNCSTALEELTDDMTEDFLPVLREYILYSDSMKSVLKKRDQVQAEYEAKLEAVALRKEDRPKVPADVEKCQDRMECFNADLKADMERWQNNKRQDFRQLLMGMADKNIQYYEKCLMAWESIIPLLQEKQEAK
# UniProt Q5JRA6: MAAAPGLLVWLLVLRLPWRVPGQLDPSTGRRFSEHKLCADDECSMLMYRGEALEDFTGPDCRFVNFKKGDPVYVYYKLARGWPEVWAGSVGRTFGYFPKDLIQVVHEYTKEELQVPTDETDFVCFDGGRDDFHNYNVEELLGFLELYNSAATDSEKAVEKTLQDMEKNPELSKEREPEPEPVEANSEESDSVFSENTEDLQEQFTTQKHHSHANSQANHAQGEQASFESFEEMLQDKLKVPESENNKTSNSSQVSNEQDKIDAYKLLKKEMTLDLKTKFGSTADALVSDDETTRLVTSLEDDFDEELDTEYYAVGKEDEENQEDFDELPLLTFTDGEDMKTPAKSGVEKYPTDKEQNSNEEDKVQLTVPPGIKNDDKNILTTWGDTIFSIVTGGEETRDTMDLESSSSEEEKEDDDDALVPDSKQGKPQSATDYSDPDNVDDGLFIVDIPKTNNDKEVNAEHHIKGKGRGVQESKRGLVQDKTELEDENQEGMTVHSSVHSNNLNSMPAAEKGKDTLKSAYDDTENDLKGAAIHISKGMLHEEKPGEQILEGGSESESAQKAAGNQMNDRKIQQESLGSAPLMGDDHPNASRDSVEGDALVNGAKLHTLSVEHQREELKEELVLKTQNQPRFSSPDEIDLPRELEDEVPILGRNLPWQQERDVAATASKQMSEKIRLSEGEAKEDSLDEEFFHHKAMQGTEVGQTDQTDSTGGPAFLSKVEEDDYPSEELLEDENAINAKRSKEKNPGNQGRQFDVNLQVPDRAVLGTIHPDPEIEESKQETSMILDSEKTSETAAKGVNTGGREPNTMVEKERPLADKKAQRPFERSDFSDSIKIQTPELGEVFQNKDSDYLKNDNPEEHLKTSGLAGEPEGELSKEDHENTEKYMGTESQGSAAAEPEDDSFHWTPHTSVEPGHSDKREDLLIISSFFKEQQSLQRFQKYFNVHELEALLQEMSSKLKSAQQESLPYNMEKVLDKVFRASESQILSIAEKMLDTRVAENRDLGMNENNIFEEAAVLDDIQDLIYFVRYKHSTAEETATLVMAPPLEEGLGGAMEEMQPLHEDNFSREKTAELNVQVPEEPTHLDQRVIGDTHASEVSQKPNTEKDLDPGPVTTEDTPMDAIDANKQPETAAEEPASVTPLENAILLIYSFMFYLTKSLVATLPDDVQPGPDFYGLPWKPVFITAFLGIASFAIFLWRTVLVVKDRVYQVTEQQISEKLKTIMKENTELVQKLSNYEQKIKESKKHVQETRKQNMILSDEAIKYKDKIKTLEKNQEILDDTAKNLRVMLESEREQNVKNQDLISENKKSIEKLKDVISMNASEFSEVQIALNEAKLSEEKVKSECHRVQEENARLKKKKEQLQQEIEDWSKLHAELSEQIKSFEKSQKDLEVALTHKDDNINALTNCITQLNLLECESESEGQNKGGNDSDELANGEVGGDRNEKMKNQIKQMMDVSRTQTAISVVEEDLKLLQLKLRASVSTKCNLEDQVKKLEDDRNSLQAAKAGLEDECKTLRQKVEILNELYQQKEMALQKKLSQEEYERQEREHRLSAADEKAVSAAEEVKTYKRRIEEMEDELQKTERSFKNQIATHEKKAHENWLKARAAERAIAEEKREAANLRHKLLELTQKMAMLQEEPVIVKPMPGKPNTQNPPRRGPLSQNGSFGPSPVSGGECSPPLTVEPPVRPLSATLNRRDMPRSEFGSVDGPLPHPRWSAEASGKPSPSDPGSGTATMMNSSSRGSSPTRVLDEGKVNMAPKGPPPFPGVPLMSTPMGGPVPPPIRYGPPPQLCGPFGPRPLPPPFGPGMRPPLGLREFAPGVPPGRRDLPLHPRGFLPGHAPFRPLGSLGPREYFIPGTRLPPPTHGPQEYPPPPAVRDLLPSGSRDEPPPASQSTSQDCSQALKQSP
# UniProt Q5T7V8: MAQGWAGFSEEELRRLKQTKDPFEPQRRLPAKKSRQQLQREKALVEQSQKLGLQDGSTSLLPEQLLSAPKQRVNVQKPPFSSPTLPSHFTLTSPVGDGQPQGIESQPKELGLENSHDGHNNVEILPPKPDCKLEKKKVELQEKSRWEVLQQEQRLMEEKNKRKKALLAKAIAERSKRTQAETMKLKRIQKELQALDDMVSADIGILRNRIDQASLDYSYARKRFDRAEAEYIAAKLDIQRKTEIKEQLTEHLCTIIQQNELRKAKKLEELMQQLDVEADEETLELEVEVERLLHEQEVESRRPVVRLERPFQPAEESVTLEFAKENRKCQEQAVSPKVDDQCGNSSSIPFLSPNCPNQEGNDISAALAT
# UniProt Q5R3I4: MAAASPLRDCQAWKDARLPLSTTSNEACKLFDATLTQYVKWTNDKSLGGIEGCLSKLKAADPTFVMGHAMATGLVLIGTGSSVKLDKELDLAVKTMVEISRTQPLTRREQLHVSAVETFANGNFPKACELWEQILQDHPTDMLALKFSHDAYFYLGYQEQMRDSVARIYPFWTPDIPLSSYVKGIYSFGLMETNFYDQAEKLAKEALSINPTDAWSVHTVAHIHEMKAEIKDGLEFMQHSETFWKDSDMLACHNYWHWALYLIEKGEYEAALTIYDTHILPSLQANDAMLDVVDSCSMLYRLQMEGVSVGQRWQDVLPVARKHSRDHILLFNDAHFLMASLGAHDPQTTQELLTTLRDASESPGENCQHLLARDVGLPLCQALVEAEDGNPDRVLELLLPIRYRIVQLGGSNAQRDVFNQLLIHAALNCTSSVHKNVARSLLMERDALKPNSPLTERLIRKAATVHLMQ
# UniProt Q562E7: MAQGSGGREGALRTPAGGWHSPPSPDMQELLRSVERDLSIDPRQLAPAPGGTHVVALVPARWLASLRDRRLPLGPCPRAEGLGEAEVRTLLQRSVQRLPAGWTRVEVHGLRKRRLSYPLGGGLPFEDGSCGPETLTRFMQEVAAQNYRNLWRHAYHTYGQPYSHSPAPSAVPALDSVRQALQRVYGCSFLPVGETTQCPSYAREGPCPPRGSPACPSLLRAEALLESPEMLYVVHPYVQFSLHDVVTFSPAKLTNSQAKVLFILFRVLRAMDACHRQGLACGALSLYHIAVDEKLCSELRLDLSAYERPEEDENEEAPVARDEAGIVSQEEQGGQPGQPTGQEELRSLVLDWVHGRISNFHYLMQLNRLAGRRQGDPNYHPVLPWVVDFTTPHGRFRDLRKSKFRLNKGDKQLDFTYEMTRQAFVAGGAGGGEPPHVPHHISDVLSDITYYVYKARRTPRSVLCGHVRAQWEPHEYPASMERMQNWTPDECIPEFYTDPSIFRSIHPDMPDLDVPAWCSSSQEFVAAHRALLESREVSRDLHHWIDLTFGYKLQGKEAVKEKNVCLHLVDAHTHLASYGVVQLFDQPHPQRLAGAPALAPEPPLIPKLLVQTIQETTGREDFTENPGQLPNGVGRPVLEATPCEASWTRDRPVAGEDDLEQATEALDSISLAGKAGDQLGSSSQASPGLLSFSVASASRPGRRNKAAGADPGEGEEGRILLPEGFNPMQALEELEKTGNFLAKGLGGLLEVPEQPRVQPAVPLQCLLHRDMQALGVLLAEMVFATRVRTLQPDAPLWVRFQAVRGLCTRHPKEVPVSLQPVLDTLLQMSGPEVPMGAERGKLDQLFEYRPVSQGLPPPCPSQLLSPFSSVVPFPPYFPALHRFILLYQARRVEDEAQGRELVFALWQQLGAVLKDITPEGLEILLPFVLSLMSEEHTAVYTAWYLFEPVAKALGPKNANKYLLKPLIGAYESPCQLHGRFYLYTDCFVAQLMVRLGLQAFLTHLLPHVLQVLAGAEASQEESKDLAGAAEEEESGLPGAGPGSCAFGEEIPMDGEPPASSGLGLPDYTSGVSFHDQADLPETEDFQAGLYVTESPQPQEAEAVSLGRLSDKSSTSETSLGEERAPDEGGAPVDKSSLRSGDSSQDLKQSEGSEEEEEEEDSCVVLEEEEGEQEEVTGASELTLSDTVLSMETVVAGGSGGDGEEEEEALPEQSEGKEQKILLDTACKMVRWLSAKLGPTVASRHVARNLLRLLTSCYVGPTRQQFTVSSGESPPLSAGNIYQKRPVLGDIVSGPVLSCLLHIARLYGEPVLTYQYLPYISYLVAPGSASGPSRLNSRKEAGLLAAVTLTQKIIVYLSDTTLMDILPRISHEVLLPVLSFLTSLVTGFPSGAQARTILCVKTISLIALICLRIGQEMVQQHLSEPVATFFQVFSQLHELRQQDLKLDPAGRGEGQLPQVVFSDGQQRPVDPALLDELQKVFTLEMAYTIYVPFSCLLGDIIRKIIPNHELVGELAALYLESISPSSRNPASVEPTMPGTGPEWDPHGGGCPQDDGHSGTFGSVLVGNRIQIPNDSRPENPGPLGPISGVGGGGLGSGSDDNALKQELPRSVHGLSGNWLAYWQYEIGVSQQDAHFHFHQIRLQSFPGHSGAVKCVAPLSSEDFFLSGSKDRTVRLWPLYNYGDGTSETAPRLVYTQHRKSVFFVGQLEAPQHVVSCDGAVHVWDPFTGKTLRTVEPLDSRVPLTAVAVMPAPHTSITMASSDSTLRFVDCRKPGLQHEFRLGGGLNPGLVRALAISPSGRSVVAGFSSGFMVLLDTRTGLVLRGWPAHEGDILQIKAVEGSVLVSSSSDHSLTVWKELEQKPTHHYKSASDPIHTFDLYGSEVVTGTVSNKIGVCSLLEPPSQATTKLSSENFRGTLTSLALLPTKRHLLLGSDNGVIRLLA
# UniProt Q53H96: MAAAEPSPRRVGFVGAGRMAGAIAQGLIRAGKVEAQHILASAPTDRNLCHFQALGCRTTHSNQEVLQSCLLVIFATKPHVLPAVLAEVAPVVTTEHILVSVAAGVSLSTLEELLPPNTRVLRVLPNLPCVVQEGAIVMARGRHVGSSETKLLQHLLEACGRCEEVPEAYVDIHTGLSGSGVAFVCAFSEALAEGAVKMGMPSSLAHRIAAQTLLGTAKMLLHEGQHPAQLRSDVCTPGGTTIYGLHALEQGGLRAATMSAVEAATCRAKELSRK
# UniProt Q5QJE6: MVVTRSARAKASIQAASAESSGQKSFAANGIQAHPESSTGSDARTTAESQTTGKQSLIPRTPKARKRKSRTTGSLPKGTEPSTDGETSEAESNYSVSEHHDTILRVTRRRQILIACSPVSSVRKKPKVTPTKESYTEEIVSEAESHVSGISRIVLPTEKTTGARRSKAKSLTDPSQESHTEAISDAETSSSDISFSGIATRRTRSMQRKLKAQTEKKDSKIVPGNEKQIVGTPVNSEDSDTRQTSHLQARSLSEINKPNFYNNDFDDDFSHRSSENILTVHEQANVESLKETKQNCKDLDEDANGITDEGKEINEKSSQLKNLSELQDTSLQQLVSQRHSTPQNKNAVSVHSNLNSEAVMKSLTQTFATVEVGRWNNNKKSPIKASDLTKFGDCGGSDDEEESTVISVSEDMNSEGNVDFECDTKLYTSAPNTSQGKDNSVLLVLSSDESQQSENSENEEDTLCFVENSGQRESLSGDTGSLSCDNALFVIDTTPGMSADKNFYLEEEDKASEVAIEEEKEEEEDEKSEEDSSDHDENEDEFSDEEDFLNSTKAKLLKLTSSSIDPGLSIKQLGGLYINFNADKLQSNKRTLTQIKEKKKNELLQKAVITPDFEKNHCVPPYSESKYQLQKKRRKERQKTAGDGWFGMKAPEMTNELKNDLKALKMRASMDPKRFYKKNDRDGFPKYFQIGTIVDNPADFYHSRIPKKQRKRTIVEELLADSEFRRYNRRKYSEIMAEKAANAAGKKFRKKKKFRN
# The list shows a part of the results. Most entries show no effect beyond the scatter of the controls.
# Compound: CN[C@@H]1C[C@H]2O[C@@](C)([C@@H]1OC)n1c3ccccc3c3c4c(c5c6ccccc6n2c5c31)C(=O)NC4 [staurosporine]
# Test: log2 fold change of tryptic peptide abundance, ligand vs vehicle (limited proteolysis) (log2 ratio); higher = more trypsin-susceptible (destabilized)
# Conditions: ligand concentration: 20 uM; sample: K562 cleared lysate; digestion: 4 min, 22 C (HT-PELSA RT4min, Orbitrap Astral)
row,Target,log2 fold change
1,"ACSF3 (peptide sequence: EGHSLSHR, peptide start residue: 524) (UniProt Q4G176)",-0.211
2,"C6ORF134 (peptide sequence: AAAVDPTPAAPAR, peptide start residue: 209) (UniProt Q5SQI0)",0.238
3,"MYSM1 (peptide sequence: TGHNLQVK, peptide start residue: 180) (UniProt Q5VVJ2)",0.211
4,"UniProt Q5JSZ5 (peptide sequence: EEGKDWAEAVGASR, peptide start residue: 430)",-0.405
5,"AASDH (peptide sequence: GLNSPVLIGK, peptide start residue: 721) (UniProt Q4L235)",-0.349
6,"AHDC1 (peptide sequence: TEAACLSAPHLASPPATPK, peptide start residue: 1495) (UniProt Q5TGY3)",-0.536
7,"LYRM7 (peptide sequence: KIEELMK, peptide start residue: 51) (UniProt Q5U5X0)",0.257
8,"UniProt Q5JPI9 (peptide sequence: HKIPLDASVLDIGTGNGVFLVELAK, peptide start residue: 75)",-0.141
9,"DNAJC21 (peptide sequence: NFAWKEEYDTR, peptide start residue: 163) (UniProt Q5F1R6)",-0.169
10,"TBCEL (peptide sequence: SFMQVLCEK, peptide start residue: 8) (UniProt Q5QJ74)",0.397
11,"SNX30 (peptide sequence: STRVEFDLPEYSVR, peptide start residue: 117) (UniProt Q5VWJ9)",0.822
12,"MIA3 (peptide sequence: LHTLSVEHQR, peptide start residue: 606) (UniProt Q5JRA6)",0.822
13,"UniProt Q5TEC3 (peptide sequence: EMGSNPHDTNKR, peptide start residue: 38)",0.297
14,"FAM133B (peptide sequence: EKLLSGSESSSK, peptide start residue: 78) (UniProt Q5BKY9)",0.233
15,"TPRG1L (peptide sequence: QTLWPLSIHDPTRR, peptide start residue: 44) (UniProt Q5T0D9)",0.303
16,"UniProt Q5VV17 (peptide sequence: LLLHGPDPVPGAAGSAAAPR, peptide start residue: 124)",0.213
17,"UniProt Q5T7V8 (peptide sequence: AEAEYIAAK, peptide start residue: 227)",-0.175
18,"LIN9 (peptide sequence: RRCEEEAQEIVR, peptide start residue: 433) (UniProt Q5TKA1)",-1.5
19,"TTC38 (peptide sequence: VLELLLPIR, peptide start residue: 394) (UniProt Q5R3I4)",-0.353

row,Target,log2 fold change
1,"UniProt Q5JNZ5 (peptide sequence: PAGAAPRPPPKPM, peptide start residue: 103)",-0.364
2,"BRMS1L (peptide sequence: VKTEPPVKLEK, peptide start residue: 239) (UniProt Q5PSV4)",0.022
3,"C2CD3 (peptide sequence: ISQSTALAR, peptide start residue: 477) (UniProt Q4AC94)",0.967
4,"RBM20 (peptide sequence: KPAESETGLSLEDSDCYEKEAK, peptide start residue: 1009) (UniProt Q5T481)",-0.423
5,"WDR81 (peptide sequence: TLQPDAPLWVR, peptide start residue: 789) (UniProt Q562E7)",0.199
6,"UniProt Q4KMZ1 (peptide sequence: AGCTGEEQWR, peptide start residue: 447)",-0.182
7,"UniProt Q53H96 (peptide sequence: AATMSAVEAATCR, peptide start residue: 255)",0.112
8,"UniProt Q5H9R7 (peptide sequence: ETLSLTVDAK, peptide start residue: 800)",-0.195
9,"UniProt Q5JVG2 (peptide sequence: IHTGEKPYECSDCGK, peptide start residue: 243)",0.0438
10,"UniProt Q5T4T6 (peptide sequence: FLVDGLKEDEPLLIR, peptide start residue: 92)",-0.196
11,"LACTB2 (peptide sequence: SFTVMELVK, peptide start residue: 235) (UniProt Q53H82)",0.205
12,"DNTTIP2 (peptide sequence: QTSHLQAR, peptide start residue: 243) (UniProt Q5QJE6)",0.432
13,"TMEM41B (peptide sequence: SQLGAHHTTPVGDGAAGTR, peptide start residue: 10) (UniProt Q5BJD5)",0.0607
14,"FASTKD1 (peptide sequence: IALEFLDSK, peptide start residue: 777) (UniProt Q53R41)",-0.239
15,"RILPL1 (peptide sequence: VTVVEAQGK, peptide start residue: 212) (UniProt Q5EBL4)",-0.203
16,"HSP90AA4P (peptide sequence: HFSVEGQLEFR, peptide start residue: 320) (UniProt Q58FG1)",-0.0956
17,"ZMYM1 (peptide sequence: TQENELK, peptide start residue: 42) (UniProt Q5SVZ6)",-0.245
18,"UniProt Q5T9C2 (peptide sequence: GGGTSSGGSSTNSLTGSRPPK, peptide start residue: 177)",-0.721

# No new results follow: entries from further up.
row,Target,log2 fold change
9,"UniProt Q5JVG2 (peptide sequence: IHTGEKPYECSDCGK, peptide start residue: 243)",0.0438
10,"UniProt Q5T4T6 (peptide sequence: FLVDGLKEDEPLLIR, peptide start residue: 92)",-0.196
11,"LACTB2 (peptide sequence: SFTVMELVK, peptide start residue: 235) (UniProt Q53H82)",0.205
